# Data reported in PubChem BioAssay AID2517 (National Center for Advancing Translational Sciences (NCATS), 2010).
# Protein sequences, listed by entry. Tags and fused reporters are not part of them.
# UniProt P27695, whole entry, looked up: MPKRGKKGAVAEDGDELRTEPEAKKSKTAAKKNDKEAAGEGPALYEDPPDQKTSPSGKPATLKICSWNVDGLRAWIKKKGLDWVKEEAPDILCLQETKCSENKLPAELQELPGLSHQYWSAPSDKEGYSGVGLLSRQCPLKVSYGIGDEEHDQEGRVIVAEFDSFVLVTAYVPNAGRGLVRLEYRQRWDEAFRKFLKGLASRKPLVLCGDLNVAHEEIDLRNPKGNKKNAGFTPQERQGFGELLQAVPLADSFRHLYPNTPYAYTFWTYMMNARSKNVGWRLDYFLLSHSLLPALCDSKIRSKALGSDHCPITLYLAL
# Values joined by “and” are separate entries in the source; they are usually repeats but may differ in a detail not shown here. Identical values can stand only once. About 1,200 (0.34%) of roughly 350,000 compounds were called active. Inconclusive means that the source gave no clear call. Such entries were picked first, then a sample of the others. Calls come from the whole dose curve; as a rule, active = well fitted inhibition curve with a large enough effect; inconclusive = small, poorly fitted or top-dose-only effect; inactive = no such curve, though single readings can be large or run the other way. A potency beside an inconclusive call is a rough fit, not a confirmed value.
# Molecular target: DNA repair nuclease/redox regulator APEX1 (Homo sapiens) (UniProt P27695)
# Test: qHTS Assay for Inhibitors of the Human Apurinic/apyrimidinic Endonuclease 1 (APE1); note: nearly all actives have a fitted effect of over 55% in size
# Settings: recombinant APE1, TAMRA/BHQ-2 abasic DNA cleavage fluorescence; series mostly up to 65.8 µM
# How it was run: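 Measures dequenching upon AP-site incision of a 5'-TAMRA/3'-BHQ-2 THF-containing duplex, 50 nM; human APE1 0.75 nM after 15 min room-temperature exposure to compound; kinetic three-point read at one-minute spacing.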
# Potency is the fitted concentration of half-maximal effect.
row,SMILES,Potency
1,COC(=O)C1=C(C)NC(C)=C(C(=O)OCCCN2CCC(c3ccccc3)(c3ccccc3)CC2)[C@H]1c1cccc([N+](=O)[O-])c1,"inconclusive: 44.7 µM [inhibitor, single point]"
2,CCOC(=O)CC(CC(C)=O)C(=O)OCC (configuration not stated),inactive
3,COc1cccc(NC(=S)NCCC(c2ccccc2)c2ccccc2)c1,"inconclusive: 0.0045 µM [inhibitor, full curve, poor fit]"
4,O=C(Nc1cc(S(=O)(=O)N2CCOCC2)ccc1N1CCOCC1)c1ccc(S(=O)(=O)N2CCCCC2)cc1,"inconclusive: 7.94 µM [inhibitor, single point]"
5,COCC(C)n1c(C)cc(C(=O)CSc2nnc(N)s2)c1C (configuration not stated),"inconclusive: 35.5 µM [inhibitor, single point]"
6,Cc1ccc(CNC(=O)C2CC(c3cccc(F)c3)=NO2)cc1 (configuration not stated),"inconclusive: 44.7 µM [inhibitor, single point]"
7,O=C(O)C1Cc2[nH]cnc2C(c2cccc([N+](=O)[O-])c2)N1 (configuration not stated),inactive
8,N[C@]1(C(=O)O)CCc2cc(C(=O)O)ccc21,"inconclusive: 35.5 µM [inhibitor, partial curve, poor fit]"
9,Cn1c(NCc2c(O)ccc3ccccc23)nc2ccccc21,"inconclusive: 17.8 µM [inhibitor, partial curve]"
10,CCN(CC)CCNc1ncnc2c1[nH]c1ccc(OC)cc12,inactive
11,Cc1c(Br)c(O)c(Br)c2sc(=O)oc12,"inconclusive: 3.16 µM [inhibitor, partial curve]"
12,Cc1ccccc1N=Cc1cccc(O)c1O,"inconclusive: 10 µM [inhibitor, partial curve]"
13,c1ccc(-c2noc(CSc3nnnn3-c3ccccc3)n2)cc1,"inconclusive: 44.7 µM [inhibitor, single point]"
14,CO[C@@]12[C@H](COC(N)=O)C3=C(C(=O)C(C)=C(N)C3=O)N1C[C@@H]1N[C@@H]12,"inconclusive: 35.5 µM [inhibitor, single point]"
15,O=C(Cc1cccs1)Nc1ccc(S(=O)(=O)Nc2ncccn2)cc1,"inconclusive: 35.5 µM [inhibitor, single point]"
16,CSc1ccc(NC(=O)c2cccnc2)cc1C#N,"inconclusive: 31.6 µM [inhibitor, partial curve]"
17,Cc1cc(C)nc(N/N=C/c2ccccc2OCc2ccccc2)n1,inactive
18,c1ccc(-c2cc(N3CCCCC3)ncn2)cc1,"inconclusive: 44.7 µM [inhibitor, single point]"
19,Cn1c2ccccc2c2cc(/C=N/NC(=O)c3cc(O)cc(O)c3)ccc21,active: 13.4 µM
20,CCN(CC)c1ccc(/C=N/N2C(=O)c3ccccc3C2=O)c(O)c1,"inconclusive: 20 µM [inhibitor, partial curve]"
21,CCOc1ccccc1NC(=S)NC(=O)CCCOc1ccc(Cl)cc1Cl,inactive
22,CC1CCCCC1NC(=O)C1CCN(C(=O)c2sccc2-n2cccc2)CC1 (configuration not stated),"inconclusive: 7.08 µM [inhibitor, single point]"
23,Cc1cc(C)nc(SCC(=O)c2ccc(O)c(O)c2)n1,inactive

row,SMILES,Potency
1,Cc1cc(/C=c2\sc3nc4ccccc4n3c2=O)c(C)n1-c1ccc(C(=O)O)cc1,"inconclusive: 39.8 µM [inhibitor, single point]"
2,COC(=O)CNC(=O)C(=O)OC,"inconclusive: 39.8 µM [inhibitor, partial curve]"
3,Cc1c(C(=O)OCc2ccccc2)[nH]c2c1C(=O)CC(c1ccco1)C2 (configuration not stated),active: 25.1 µM
4,O=C(CNCC1CCCCC1)Nc1ccc(N2CCCCC2)cc1,inactive
5,CCc1ccc(-c2nc(CS(=O)CC(=O)O)c(C)o2)cc1 (configuration not stated),"inconclusive: 0.0251 µM [inhibitor, full curve, poor fit]"
6,O=C(O)c1ccc2c3c(cccc13)C(=O)N(c1ccccc1)C2=O,"inconclusive: 31.6 µM [inhibitor, single point]"
7,CC(=O)Nc1ccc(S(=O)(=O)/N=C2\SCCN2S(=O)(=O)c2ccc(NC(C)=O)cc2)cc1,"inconclusive: 31.6 µM [inhibitor, single point]"
8,COC(=O)Cn1c(CCS(=O)(=O)c2ccc(C)cc2)nc2ccccc21,"inconclusive: 15.8 µM [inhibitor, partial curve]"
9,Cc1cc2c([nH]c3ccccc32)c(C)n1,inactive
10,O=C(O)c1ccccc1NS(=O)(=O)c1cccc(C(F)(F)F)c1,inactive
11,CN1CCN(C2=CC3=CC(=C(C#N)C#N)CCC3CC2)CC1 (configuration not stated),inactive
12,N#CC1=C(N)Oc2c(ccc3cccnc23)C1c1ccccc1 (configuration not stated),inactive
13,Cc1ccc(S(=O)(=O)Nn2c(O)c(C=C3N=c4ccccc4=N3)sc2=S)cc1,"inconclusive: 5.01 µM [inhibitor, single point]"
14,COC(=O)c1cc(NS(=O)(=O)c2ccc(N3CCC(C)CC3)c([N+](=O)[O-])c2)cc(C(=O)OC)c1,"inconclusive: 50.1 µM [inhibitor, partial curve, poor fit]"
15,C=CCn1c(=O)c2ccc(C(=O)NCc3ccccc3)cc2n(Cc2cccc(Cl)c2)c1=O,"inconclusive: 8.91 µM [inhibitor, single point]"
16,CC12CCC(O)CC1=CCC1C2CCC2(C)C1CCC21CCC(=O)O1 (configuration not stated),"inconclusive: 8.91 µM [inhibitor, single point]"
17,COc1ccc(N/N=C(/N=Nc2nc(C)cc(=O)[nH]2)c2ccccc2)cc1,inactive
18,Cc1ccc(NC(=O)c2cc(NC(=O)C3CC=CCC3C(=O)O)ccc2N2CCOCC2)cc1Cl (configuration not stated),"inconclusive: 0.0007 µM [inhibitor, full curve, poor fit]"
19,Cc1ccc(NC(=O)c2cccs2)cc1NC(=O)c1cccc(F)c1,inactive
20,C[n+]1nc(Nc2cccc(F)c2)sc1-c1ccc(C(=O)O)cc1,"inconclusive: 2.51 µM [inhibitor, full curve, poor fit]"
21,O=C(COc1ccccc1Cl)c1ccc[nH]1,"inconclusive: 35.5 µM [inhibitor, partial curve]"
22,CC(=O)/C(=C/c1ccc(N(C)C)cc1)C(=O)c1ccccc1,"inconclusive: 1.12 µM [inhibitor, partial curve, poor fit]"
23,Cn1c(=O)c2cc3ccc(Cl)cc3nc2n(C)c1=O,"inconclusive: 7.08 µM [inhibitor, single point]"

row,SMILES,Potency
1,O=c1c2cc(-c3ccccc3)sc2nc2n1N=C(c1ccccc1)CS2,"inconclusive: 3.16 µM [inhibitor, single point]"
2,CCCCn1c(N)c(N(CCOC)C(=O)c2cc(-c3ccco3)nc3ccccc23)c(=O)[nH]c1=O,"inconclusive: 21.2 µM [inhibitor, partial curve]"
3,CC(C)CN(C(=O)CN1C(=O)NC(c2ccccc2)(c2ccccc2)C1=O)C1CCS(=O)(=O)C1 (configuration not stated),inactive
4,Cc1ccc(OC(C)C(=O)N=Nc2c(O)[nH]c3ccc([N+](=O)[O-])cc23)cc1 (configuration not stated),"inconclusive: 39.8 µM [inhibitor, single point]"
5,COC(=O)c1ccc(CSc2nnc(SCc3ccc(C(=O)OC)o3)s2)o1,"inconclusive: 35.5 µM [inhibitor, single point]"
6,CC(C)(C)C1(O)CCN2CC3c4ccccc4CCc4cccc(c43)C2C1 (configuration not stated),inactive
7,O=C(O)CCc1nc2cc3ccccc3cc2[nH]1,"inconclusive: 39.8 µM [inhibitor, single point]"
8,Cc1nc2ccc(NC(=O)COc3ccccc3F)cc2s1,inactive
9,COc1ccc(-c2cc(C(F)(F)F)n3nc(C(=O)N4CCCC4)cc3n2)cc1,"inconclusive: 44.7 µM [inhibitor, single point]"
10,CCOc1cc(C(=O)NC(=S)Nn2cnnc2)cc(OCC)c1OCC,"inconclusive: 31.6 µM [inhibitor, single point]"
11,NC(=O)[C@@H]1CCOc2c(F)cc([N+](=O)[O-])cc2C(=O)N[C@@H](CO)C(=O)NCC(=O)N1,"inconclusive: 3.55 µM [inhibitor, single point]"
12,COC(=O)c1sccc1NC(=O)CC1C(=O)NCCN1C(=O)c1ccc(N(C)C)cc1 (configuration not stated),"inconclusive: 0.0355 µM [inhibitor, full curve, poor fit]"
13,COc1ccc(NC(=O)COC(=O)c2cc(OC)c(OC)c(OC)c2)c([N+](=O)[O-])c1,"inconclusive: 11.2 µM [inhibitor, partial curve, poor fit]"
14,Cc1cccc(C)c1Nc1nnc(SC/C(O)=C(\C#N)c2nc3ccccc3[nH]2)s1,inactive
15,Nc1nonc1OCCOCCOCCOc1nonc1N,"inconclusive: 44.7 µM [inhibitor, single point]"
16,CC1(OC(=O)CCc2ccccc2)C(=O)C=C2C=C3CCCN3C=C2C1=O (configuration not stated),"inactive and inconclusive: 3.55 µM [inhibitor, partial curve]"
17,COc1cc2c(cc1OC)C(c1ccc(N)cc1)=NNC(=O)C2,"inconclusive: 39.8 µM [inhibitor, partial curve, poor fit]"
18,CCN(CC)CCOC(=O)c1ccc(N/C=C(/C#N)c2nc(-c3cc4ccccc4oc3=O)cs2)cc1,"inconclusive: 5.32 µM [inhibitor, partial curve]"
19,Cc1cc(/C=C/c2ccc3cc(N(C)C)ccc3[n+]2C)c(C)n1-c1ccccc1,"inconclusive: 7.08 µM [inhibitor, partial curve, poor fit]"
20,COc1ccc(/C=C2\SC(=O)NC2=S)cc1OC,"inconclusive: 28.2 µM [inhibitor, single point]"
21,O=C(NCCCNC(=O)c1cnccn1)c1cccc(Cl)c1,inactive
